What was measured:
[1] = In-solution digest of plasma, quantitative MS/MS (relative protein composition); design: species or system human; settings: original plasma, no fibrils
[2] = In-solution digest of CSF, quantitative MS/MS (relative protein composition); design: species or system human; key to Identification status: CSF: *: Identified, but not quantified; —: Not identified in any of the samples; settings: original CSF; for Relative composition of CSF proteins: CSF: no fibrils

Molecule | Relative composition of plasma proteins: Plasma [1] | Relative composition of CSF proteins: CSF [2] | Identification status: CSF ([2]; symbol cells)
Ig α-1 chain C region: plasma/CSF protein bound to fibrils (protein, UniProt P01876 1-398, looked up) Immunoglobulin heavy constant …: ASPTSPKVFPLSLCSTQPDGNVVIACLVQGFFPQEPLSVTWSESGQGVTARNFPPSQDASGDLYTTSSQLTLPATQCLAGKSVTCHVKHYTNPSQDVTVPCPVPSTPPTPSPSTPPTPSPSCCHPRLSLHRPALEDLLLGSEANLTCTLTGLRDASGVTFTWTPSSGKSAVQGPPERDLCGCYSVSSVLPGCAEPWNHGKTFTCTAAYPESKTPLTATLSKSGNTFRPEVHLLPPPSEELALNELVTLTCLARGFSPKDVLVRWLQGSQELPREKYLTWASRQEPSQGTTTFAVTSILRVAAEDWKKGDTFSCMVGHEALPLAFTQKTIDRLADWQMPPPYVVLDLPQETLEEETPGANLWPTTITFLTLFLLSLFYSTALTVTSVRGPSGNREGPQY | 3.2 ± 0.1 % of total protein | 1.9 ± 0.1 % of total protein | 
Ig γ -2 chain C region: plasma/CSF protein bound to fibrils (protein, UniProt P01859 1-395, looked up) Immunoglobulin heavy constant …: ASTKGPSVFPLAPCSRSTSESTAALGCLVKDYFPEPVTVSWNSGALTSGVHTFPAVLQSSGLYSLSSVVTVPSSNFGTQTYTCNVDHKPSNTKVDKTVERKCCVECPPCPAPPVAGPSVFLFPPKPKDTLMISRTPEVTCVVVDVSHEDPEVQFNWYVDGVEVHNAKTKPREEQFNSTFRVVSVLTVVHQDWLNGKEYKCKVSNKGLPAPIEKTISKTKGQPREPQVYTLPPSREEMTKNQVSLTCLVKGFYPSDISVEWESNGQPENNYKTTPPMLDSDGSFFLYSKLTVDKSRWQQGNVFSCSVMHEALHNHYTQKSLSLSPELQLEESCAEAQDGELDGLWTTITIFITLFLLSVCYSATITFFKVKWIFSSVVDLKQTIVPDYRNMIRQGA | 6.0 ± 0.1 % of total protein | 3.9 ± 0.1 % of total protein | 
Ig γ -3 chain C region: plasma/CSF protein bound to fibrils (protein, UniProt P01860 1-446, looked up) Immunoglobulin heavy constant …: ASTKGPSVFPLAPCSRSTSGGTAALGCLVKDYFPEPVTVSWNSGALTSGVHTFPAVLQSSGLYSLSSVVTVPSSSLGTQTYTCNVNHKPSNTKVDKRVELKTPLGDTTHTCPRCPEPKSCDTPPPCPRCPEPKSCDTPPPCPRCPEPKSCDTPPPCPRCPAPELLGGPSVFLFPPKPKDTLMISRTPEVTCVVVDVSHEDPEVQFKWYVDGVEVHNAKTKPREEQYNSTFRVVSVLTVLHQDWLNGKEYKCKVSNKALPAPIEKTISKTKGQPREPQVYTLPPSREEMTKNQVSLTCLVKGFYPSDIAVEWESSGQPENNYNTTPPMLDSDGSFFLYSKLTVDKSRWQQGNIFSCSVMHEALHNRFTQKSLSLSPELQLEESCAEAQDGELDGLWTTITIFITLFLLSVCYSATVTFFKVKWIFSSVVDLKQTIIPDYRNMIGQGA | 6.7 ± 0.2 % of total protein | 7.8 ± 0.3 % of total protein | 
Histidine-rich glycoprotein (protein, UniProt P04196 19-525, looked up) Histidine-rich glycoprotein: VSPTDCSAVEPEAEKALDLINKRRRDGYLFQLLRIADAHLDRVENTTVYYLVLDVQESDCSVLSRKYWNDCEPPDSRRPSEIVIGQCKVIATRHSHESQDLRVIDFNCTTSSVSSALANTKDSPVLIDFFEDTERYRKQANKALEKYKEENDDFASFRVDRIERVARVRGGEGTGYFVDFSVRNCPRHHFPRHPNVFGFCRADLFYDVEALDLESPKNLVINCEVFDPQEHENINGVPPHLGHPFHWGGHERSSTTKPPFKPHGSRDHHHPHKPHEHGPPPPPDERDHSHGPPLPQGPPPLLPMSCSSCQHATFGTNGAQRHSHNNNSSDLHPHKHHSHEQHPHGHHPHAHHPHEHDTHRQHPHGHHPHGHHPHGHHPHGHHPHGHHPHCHDFQDYGPCDPPPHNQGHCCHGHGPPPGHLRRRGPGKGPRPFHCRQIGSVYRLPPLRKGEVLPLPEANFPSFPLPHHKHPLKPDNQPFPQSVSESCPGKFKSGFPQVSMFFTHTFPK | 0.0 ± 0.0 % of total protein |  | *
C4b-binding protein α chain: plasma protein bound to fibrils (protein, UniProt P04003 49-597, looked up) C4b-binding protein alpha …: NCGPPPTLSFAAPMDITLTETRFKTGTTLKYTCLPGYVRSHSTQTLTCNSDGEWVYNTFCIYKRCRHPGELRNGQVEIKTDLSFGSQIEFSCSEGFFLIGSTTSRCEVQDRGVGWSHPLPQCEIVKCKPPPDIRNGRHSGEENFYAYGFSVTYSCDPRFSLLGHASISCTVENETIGVWRPSPPTCEKITCRKPDVSHGEMVSGFGPIYNYKDTIVFKCQKGFVLRGSSVIHCDADSKWNPSPPACEPNSCINLPDIPHASWETYPRPTKEDVYVVGTVLRYRCHPGYKPTTDEPTTVICQKNLRWTPYQGCEALCCPEPKLNNGEITQHRKSRPANHCVYFYGDEISFSCHETSRFSAICQGDGTWSPRTPSCGDICNFPPKIAHGHYKQSSSYSFFKEEIIYECDKGYILVGQAKLSCSYSHWSAPAPQCKALCRKPELVNGRLSVDKDQYVEPENVTIQCDSGYGVVGPQSITCSGNRTWYPEVPKCEWETPEGCEQVLTGKRLMQCLPNPEDVKMALEVYKLSLEIEQLELQRDSARQSTLDKEL | 0.1 ± 0.0 % of total protein |  | 
C4b-binding protein β chain: plasma protein bound to fibrils (protein, UniProt P20851 18-252, looked up) C4b-binding protein beta chain: SDAEHCPELPPVDNSIFVAKEVEGQILGTYVCIKGYHLVGKKTLFCNASKEWDNTTTECRLGHCPDPVLVNGEFSSSGPVNVSDKITFMCNDHYILKGSNRSQCLEDHTWAPPFPICKSRDCDPPGNPVHGYFEGNNFTLGSTISYYCEDRYYLVGVQEQQCVDGEWSSALPVCKLIQEAPKPECEKALLAFQESKNLCEAMENFMQQLKESGMTMEELKYSLELKKAELKAKLL | 0.0 ± 0.0 % of total protein |  | 
Inter-α-trypsin inhibitor heavy chain H2: plasma protein bound to fibrils (protein, UniProt P19823 55-702, looked up) Inter-alpha-trypsin inhibitor …: SLPGESEEMMEEVDQVTLYSYKVQSTITSRMATTMIQSKVVNNSPQPQNVVFDVQIPKGAFISNFSMTVDGKTFRSSIKEKTVGRALYAQARAKGKTAGLVRSSALDMENFRTEVNVLPGAKVQFELHYQEVKWRKLGSYEHRIYLQPGRLAKHLEVDVWVIEPQGLRFLHVPDTFEGHFDGVPVISKGQQKAHVSFKPTVAQQRICPNCRETAVDGELVVLYDVKREEKAGELEVFNGYFVHFFAPDNLDPIPKNILFVIDVSGSMWGVKMKQTVEAMKTILDDLRAEDHFSVIDFNQNIRTWRNDLISATKTQVADAKRYIEKIQPSGGTNINEALLRAIFILNEANNLGLLDPNSVSLIILVSDGDPTVGELKLSKIQKNVKENIQDNISLFSLGMGFDVDYDFLKRLSNENHGIAQRIYGNQDTSSQLKKFYNQVSTPLLRNVQFNYPHTSVTDVTQNNFHNYFGGSEIVVAGKFDPAKLDQIESVITATSANTQLVLETLAQMDDLQDFLSKDKHADPDFTRKLWAYLTINQLLAERSLAPTAAAKRRITRSILQMSLDHHIVTPLTSLVIENEAGDERMLADAPPQDPSCCSGALYYGSKVVPDSTPSWANPSPTPVISMLAQGSQVLESTPPPHVMRVEND | 0.2 ± 0.0 % of total protein |  | 
